No constants are given. Whether binding was seen depends on the method and setting. Some binding calls cover weakened binding; strength is not graded here. Tags and fused reporters may be left off the sequences shown.
Columns and labels:
TGF-β3 [1] = target: T1, TGF-β3 (UniProt P10600); assay: SPR competition, 0.8 nM TGF-β3 with increasing receptor fusion over immobilised 1D11 (competitor)
T1 sequence (looked up): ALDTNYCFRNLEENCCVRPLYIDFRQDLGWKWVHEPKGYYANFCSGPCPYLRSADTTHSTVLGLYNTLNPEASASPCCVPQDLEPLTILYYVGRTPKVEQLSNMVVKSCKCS

Chains of the proteins cited; added tags and fusions are not shown. Residues count along the entry.
UniProt P01137, residues 279-390: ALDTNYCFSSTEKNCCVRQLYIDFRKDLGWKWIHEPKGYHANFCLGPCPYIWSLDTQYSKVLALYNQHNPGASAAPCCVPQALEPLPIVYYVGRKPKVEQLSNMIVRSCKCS

TGF-β3 [2] = target: T1, TGF-β3; assay: SPR
TGF-β1 [3] = target: TGF-β1 (UniProt P01137); assay: SPR
TGF-β3 [4] = target: T1, TGF-β3; assay: SPR, fusion injected over immobilised TGF-β3
TGF-β1 [5] = target: TGF-β1 (UniProt P01137); assay: SPR, fusion injected over immobilised TGF-β1

Measured: binding

B1: RER (TβRII-TβRIIIE-TβRII) heterotrimeric fusion (designed binder)
chain: AAANGAVKFPQLCKFCDVRFSTCDNQKSCMSNCSITSICEKPQEVCVAVWRKNDENITLETVCHDPKLPYHDFILEDAASPKCIMKEKKKPGETFFMCSCSSDECNDNIIFSEEYNTSNPDGLGPVESSPGHGLDTAAAGPEPSTRCELSPINASHPVQALMESFTVLSGCASHGTTGLPREVHVLNLRSTDQGPGQRQREVTLHLNPIASVHTHHKPIVFLLNSPQPLVWRLKTERLAAGVPRLFLVSEGSVVQFPSGNFSLTAETEERNFPQENEHLLRWAQKEYGAVTSFTELKIARNIYIKVGEDQVFPPTCNIGKNFLSLNYLAEYLQPKAAEGCVLPSQPHEKEVHIIELITPSSNPYSAFQVDIIVDIRPAQEDPEVVKNLVLILKSKKSVNWVIKSFDVKGNLKVIAPNSIGFGKESERSMTMTKLVRDDIPSTQENLMKWALDAGYRPVTSYTMAPVANRFHLRLENNEEMRDEEVHTIPPELRILLDPDKLPQLCKFCDVRFSTCDNQKSCMSNCSITSICEKPQEVCVAVWRKNDENITLETVCHDPKLPYHDFILEDAASPKCIMKEKKKPGETFFMCSCSSDECNDNIIFSEEYNTSNPD
binds: all assays above

Source: patent USRE49280
